Data published in PMC9496625.
These are yes or no findings as the source states them, for the method shown. Binding seen in cells or lysates may run through a third protein. Some entries that bind do so weakly or less than the wild type.

Key:
[1] = molecular target: NMDA receptor subunit GluN2B (rat (endogenous in cultured cortical neurons)) (UniProt Q00960); test: co-IP; endogenous proteins in lysates (500 µg) of rat cortical neurons 12 d in culture; capture antibody (5 µg) prebound to protein A magnetic beads, overnight at 4 °C; immunoblot; cells treated with sham OGD or 30 min OGD and 1 h recovery, with or without 3 µM jasplakinolide
[2] = molecular target: NMDA receptor subunit GluN2A (rat (endogenous in cultured cortical neurons)) (UniProt Q00959); test: as above

Substance | binding [1] | binding [2]
NMDA receptor subunit GluN2A (from UniProt Q00959 23-1464) | binds | –
NMDA receptor subunit GluN2B (from UniProt Q00960 27-1482) | – | binds
